Reference: PubChem BioAssay AID330 (DTP/NCI, 2004)
The list shows only some results of the screen, not a fair sample: it is rich in T/C values a quarter to a half above the control, in often repeated tests (any T/C) and in doses without a T/C. Further doses and runs are listed elsewhere. T/C: endpoint of the treated group in % of that of the vehicle group. Some entries give survivors of the animals treated and no T/C: the source files T/C as zero there, which appears to mark a toxic dose or a test without result, not a measured value. Counts of survivors are from the toxicity check (mostly the fifth day) where no day follows; animals may have died later. Schedules are NCI's codes, read here as Q, the interval in days (D) or hours (H), X, the number of doses. For survival time, this PubChem deposit counts one and a half times the control or more as active, and values a quarter to a half above the control carry no call in these data; other NCI protocols may use other cut-offs. Some T/C values carry the count of animals alive at the toxicity check (mostly the fifth day); where none is given, no animal had died by that day. Some entries were tested several times; the results are listed from low to high. Brackets with × count equal records among those shown.

Test system: P388 leukemia ip, CD2F1 mice, survival T/C
Experiment: NCI In Vivo Anticancer Drug Screen. Data for tumor model P388 Leukemia (intraperitoneal) in CD2F1 (CDF1) mice
Details: T/C endpoint: median survival time, higher T/C = longer survival

For `CS(=O)(=O)CS(=O)(=O)OCCCl`, the T/C (dose: 12.5 mg/kg/injection, schedule: Q01DX005 (ip), vehicle: dextrose) was 132 % of control, the T/C (dose: 12.5 mg/kg/injection, schedule: Q01DX005 (ip), vehicle: distilled water + Tween-80) was 127 % of control and the T/C (dose: 15.0 mg/kg/injection, schedule: Q01DX005 (ip), vehicle: saline) was 144 % of control. The T/C (dose: 22.0 mg/kg/injection, schedule: Q01DX005 (ip), vehicle: saline with Tween-80, evaluated on day 30) was 160, 161, 168 (2×), 180 % of control, the T/C (dose: 22.0 mg/kg/injection, schedule: Q01DX005 (ip), vehicle: saline with Tween-80, evaluated on day 45) was 155 % of control and the T/C (dose: 22.0 mg/kg/injection, schedule: Q01DX005 (ip), vehicle: saline with Tween-80, evaluated on day 60) was 151 and 170 % of control. The T/C (dose: 25.0 mg/kg/injection, schedule: Q01DX005 (ip), vehicle: distilled water + Tween-80) was 145 % of control, the T/C (dose: 25.0 mg/kg/injection, schedule: Q01DX005 (iv), vehicle: dextrose) was 141 % of control and the T/C (dose: 33.0 mg/kg/injection, schedule: Q01DX005 (ip), vehicle: saline with Tween-80, evaluated on day 30) was 179, 202, 208, 209, 214 % of control. The T/C (dose: 33.0 mg/kg/injection, schedule: Q01DX005 (ip), vehicle: saline with Tween-80, evaluated on day 45) was 186 % of control, the T/C (dose: 33.0 mg/kg/injection, schedule: Q01DX005 (ip), vehicle: saline with Tween-80, evaluated on day 60) was 178 [9 of 10 alive], 217, 231, 292 % of control and the T/C (dose: 50.0 mg/kg/injection, schedule: Q01DX005 (ip), vehicle: saline with Tween-80, evaluated on day 30) was 230, 233, 250, 272, 280, 285 % of control. The T/C (dose: 50.0 mg/kg/injection, schedule: Q01DX005 (ip), vehicle: saline with Tween-80, evaluated on day 45) was 412 % of control, the T/C (dose: 50.0 mg/kg/injection, schedule: Q01DX005 (ip), vehicle: saline with Tween-80, evaluated on day 60) was 292, 555, 600, 606 % of control [9 of 10 alive] and the T/C (dose: 75.0 mg/kg/injection, schedule: Q01DX005 (ip), vehicle: saline with Tween-80, evaluated on day 45) was 412 % of control. For the same compound, the T/C (dose: 75.0 mg/kg/injection, schedule: Q01DX005 (ip), vehicle: saline with Tween-80, evaluated on day 60) was 555, 566, 600, 606 % of control, the survivor count (dose: 75.0 mg/kg/injection, schedule: Q01DX005 (ip), vehicle: water) was 2 of 6 and the survivor count (dose: 100.0 mg/kg/injection, schedule: Q01DX005 (ip), vehicle: dextrose) was 4 of 10. The T/C (dose: 100.0 mg/kg/injection, schedule: Q01DX005 (ip), vehicle: saline with Tween-80, evaluated on day 30) was 90 % of control [4 of 6 alive], the T/C (dose: 100.0 mg/kg/injection, schedule: Q01DX005 (ip), vehicle: saline with Tween-80, evaluated on day 45) was 412 % of control and the T/C (dose: 100.0 mg/kg/injection, schedule: Q01DX005 (ip), vehicle: saline with Tween-80, evaluated on day 60) was 600 and 606 % of control. The survivor count (dose: 100.0 mg/kg/injection, schedule: Q01DX005 (ip), vehicle: saline with Tween-80) was 6 of 10, the survivor count (dose: 125.0 mg/kg/injection, schedule: Q01DX005 (ip), vehicle: dextrose) was 0 of 10 and the survivor count (dose: 125.0 mg/kg/injection, schedule: Q01DX005 (ip), vehicle: other) was 0 of 6. For the same compound, the survivor count (dose: 125.0 mg/kg/injection, schedule: Q01DX005 (ip), vehicle: saline with Tween-80) was 3 of 10, the survivor count (dose: 125.0 mg/kg/injection, schedule: Q01DX005 (ip), vehicle: water) was 3 of 10 and the survivor count (dose: 150.0 mg/kg/injection, schedule: Q01DX005 (ip), vehicle: saline) was 0 of 5. The survivor count (dose: 200.0 mg/kg/injection, schedule: Q01DX005 (ip), vehicle: saline with Tween-80) was 0 of 6 and the survivor count (dose: 200.0 mg/kg/injection, schedule: Q01DX005 (ip), vehicle: saline) was 1 of 6.

In the case of `C1CC(CCC2CCNCC2)CCN1`, the survivor count (dose: 100.0 mg/kg/injection, schedule: Q01DX009 (ip), vehicle: saline) is reported as 3 of 6 and the survivor count (dose: 200.0 mg/kg/injection, schedule: Q01DX009 (ip), vehicle: saline) is reported as 0 of 6.
